Our source for the binding values is PMC10269811.

Experiment [1] concerns the target HrpP_(1–119) fused to the N-terminal fragment of GFP (P. syringae pv. tomato DC3000). Kind of experiment: split reporter; BiFC: HrpP or truncated HrpP fused to the N-terminal fragment of GFP, MKK2 to the C-terminal fragment; coexpressed in N. benthamiana leaves by Agrobacterium infiltration; confocal microscopy at 2 dpi.
Experiment [2] concerns the target HrpP-GFP^N (P. syringae pv. tomato DC3000). The description is as above.
The target in experiment [3] is HrpP_(1–101) fused to the N-terminal fragment of GFP (P. syringae pv. tomato DC3000). The description is as above.
The target in experiment [4] is HrpP of P. syringae pv. tomato DC3000, two-hybrid bait in pGBKT7 (P. syringae pv. tomato DC3000) (UniProt G3XDD5). As to the kind of experiment: two-hybrid; hrpP in pGBKT7 as bait, candidate genes in pGADT7 as prey; yeast strain Gold; tested on SD/-His/-Leu/-Trp/-Ade or SD/-His/-Leu/X-α-Gal plates.

No constants are given. Whether binding was seen depends on the method and setting. For some of these results: Binding seen in cells or lysates may run through a third protein. For some of these results: Binding can be weak; no strength is given. For some of these results: Tags and fused reporters may be left off the sequences shown.

B1: MKK2-GFP^C (protein, UniProt Q9S7U9 1-363)
chain: MKKGGFSNNLKLAIPVAGEQSITKFLTQSGTFKDGDLRVNKDGVRIISQLEPEVLSPIKPADDQLSLSDLDMVKVIGKGSSGVVQLVQHKWTGQFFALKVIQLNIDEAIRKAIAQELKINQSSQCPNLVTSYQSFYDNGAISLILEYMDGGSLADFLKSVKAIPDSYLSAIFRQVLQGLIYLHHDRHIIHRDLKPSNLLINHRGEVKITDFGVSTVMTNTAGLANTFVGTYNYMSPERIVGNKYGNKSDIWSLGLVVLECATGKFPYAPPNQEETWTSVFELMEAIVDQPPPALPSGNFSPELSSFISTCLQKDPNSRSSAKELMEHPFLNKYDYSGINLASYFTDAGSPLATLGNLSGTFSV
As to B1, the binding result in experiment [1] is recorded as “binds”; in experiment [2], “binds”; in experiment [3], “no binding”.

B2: PBL1, two-hybrid prey in pGADT7 (enzyme, UniProt Q8H186 1-389)
chain: MGSCLSSRVLNKSSSGLDDLHLSSCKSSSSATAHKTEGEILSSTTVKSFSFNELKLATRNFRSDSVVGEGGFGCVFRGWLDETTLTPTKSSSGLVIAVKRLNPDGFQGHREWLTEINYLGQLSHPNLVKLIGYCLEDEQRLLVYEFMHKGSLENHLFANGNKDFKPLSWILRIKVALDAAKGLAFLHSDPVKVIYRDIKASNILLDSDFNAKLSDFGLARDGPMGEQSYVSTRVMGTFGYAAPEYVSTGHLNARSDVYSFGVVLLELLCGRQALDHNRPAKEQNLVDWARPYLTSRRKVLLIVDTRLNSQYKPEGAVRLASIAVQCLSFEPKSRPTMDQVVRALVQLQDSVVKPANVDPLKVKDTKKLVGLKTEDKYQRNGLNKKTVGL
Consider B2, for which the binding result in experiment [4] is “no binding”.

B3: PBL2, two-hybrid prey in pGADT7 (enzyme, UniProt O49839 1-426)
chain: MGNCLDSSAKVDNSNHSPHANSASSGSKVSSKTSRSTGPSGLSTTSYSTDSSFGPLPTLRTEGEILSSPNLKAFTFNELKNATKNFRQDNLLGEGGFGCVFKGWIDQTSLTASRPGSGIVVAVKQLKPEGFQGHKEWLTEVNYLGQLSHPNLVLLVGYCAEGENRLLVYEFMPKGSLENHLFRRGAQPLTWAIRMKVAVGAAKGLTFLHEAKSQVIYRDFKAANILLDADFNAKLSDFGLAKAGPTGDNTHVSTKVIGTHGYAAPEYVATGRLTAKSDVYSFGVVLLELISGRRAMDNSNGGNEYSLVDWATPYLGDKRKLFRIMDTKLGGQYPQKGAFTAANLALQCLNPDAKLRPKMSEVLVTLEQLESVAKPGTKHTQMESPRFHHSSVMQKSPVRYSHDRPLLHMTPGASPLPSYTQSPRVR
On to B3, for which the binding result in experiment [4] is recorded as “no binding”.

B4: PBL27, two-hybrid prey in pGADT7 (enzyme, UniProt Q1PDV6 1-513)
chain: MSGCLPCFGSSAKDAASKDSVKKELSAKDGSVTQSHHISLDKSKSRRGPEQKKELTAPKEGPTAHIAAQTFTFRELAAATKNFRPECLLGEGGFGRVYKGRLETTGQIVAVKQLDRNGLQGNREFLVEVLMLSLLHHPNLVNLIGYCADGDQRLLVYEYMPLGSLEDHLHDLPPDKEPLDWSTRMTIAAGAAKGLEYLHDKANPPVIYRDLKSSNILLGDGYHPKLSDFGLAKLGPVGDKTHVSTRVMGTYGYCAPEYAMTGQLTLKSDVYSFGVVFLELITGRKAIDNARAPGEHNLVAWARPLFKDRRKFPKMADPSLQGRYPMRGLYQALAVAAMCLQEQAATRPLIGDVVTALTYLASQTFDPNAPSGQNSRSGSGPPFIRTRDDRRSLGDGSSLDSPAETRSRLGSPATHKNSPDYRRRDMVREVNAGSEGGSETGGGSGRKWGLSDLEGQESQRGSPASVGRSSRGTPRNRDLDRERAVAEAKVWGENWRERKRATNGPGSFDSTND
B4: the binding entry in experiment [4] is given as “no binding”.

B5: LORE, two-hybrid prey in pGADT7 (receptor, UniProt O64782 1-805)
chain: MGMVLFACLLLLIIFPTCGYAAINTSSPLSIRQTLSSPGGFYELGFFSPNNTQNQYVGIWFKKIVPRVVVWVANRDTPVTSSAANLTISSNGSLILLDGKQDVIWSTGKAFTSNKCHAELLDTGNFVVIDDVSGNKLWQSFEHLGNTMLPQSSLMYDTSNGKKRVLTTWKSNSDPSPGEFSLEITPQIPTQGLIRRGSVPYWRCGPWAKTRFSGISGIDASYVSPFSVVQDTAAGTGSFSYSTLRNYNLSYVTLTPEGKMKILWDDGNNWKLHLSLPENPCDLYGRCGPYGLCVRSDPPKCECLKGFVPKSDEEWGKGNWTSGCVRRTKLSCQAKSSMKTQGKDTDIFYRMTDVKTPDLHQFASFLNAEQCYQGCLGNCSCTAFAYISGIGCLVWNGELADTVQFLSSGEFLFIRLASSELAGSSRRKIIVGTTVSLSIFLILVFAAIMLWRYRAKQNDAWKNGFERQDVSGVNFFEMHTIRTATNNFSPSNKLGQGGFGPVYKGKLVDGKEIGVKRLASSSGQGTEEFMNEITLISKLQHRNLVRLLGYCIDGEEKLLIYEFMVNKSLDIFIFDPCLKFELDWPKRFNIIQGIARGLLYLHRDSRLRVIHRDLKVSNILLDDRMNPKISDFGLARMFQGTQYQDNTRRVVGTLGYMSPEYAWAGLFSEKSDIYSFGVLMLEIISGKRISRFIYGDESKGLLAYTWDSWCETGGSNLLDRDLTDTCQAFEVARCVQIGLLCVQHEAVDRPNTLQVLSMLTSATDLPVPKQPIFAVHTLNDMPMLQANSQDFLSVNEMTESMIQGR
Consider B5, for which the binding result in experiment [4] is “no binding”.
